Test results published in US20150111896A1, “HEMATOPOIETIC PROTECTION AGAINST CHEMOTHERAPEUTIC COMPOUNDS USING SELECTIVE CYCLIN-DEPENDENT KINASE 4/6 INHIBITORS” (The University of North Carolina at Chapel Hill, priority 2008, published 2015).
Some results were stated once for a whole list of compounds, not compound by compound.

Experiments:
[1] = system: human melanoma cells lacking INK4a/ARF (WM2664); experiment: Cell cycle analysis (BrdU and propidium iodide, flow cytometry); format: cell-based; conditions: WM2664 (CDK4/6-dependent), 24 hours treatment
Protocol: (§1) Cells were cultured in DMEM+10% FBS.
(§2) Cell cycle analysis: Cell cycle analysis was performed using BrdU and propidium iodide (both from BD Biosciences Pharmigen, San Jose, Calif., United States of America) following the manufacturer's protocol. Cells were treated for 24 hours with a test compound at a desired dose prior to 15 minutes BrdU pulse, cell harvesting, fixation, staining, and analysis by flow cytometry.
(§3) Histograms of dose-response curves of PD332991 and 2BrIC in HS68, WM2664 and A2058 cells were analyzed using Mod-Fit™ software from Verity Software House (Topsham, Me., United States of America).

[2] = system: telomerized human diploid fibroblast (tHDF) cells (HS68); experiment: as above; format: cell-based; conditions: HS68 (CDK4/6-dependent), 24 hours treatment
Protocol: as §1, §2, §3

Row | SMILES | cell cycle effect [1] | cell cycle effect [2] | also measured
1 | CN1CCN(c2ccc(N/C=C3\C(=O)NC(=O)c4ccc(-c5ccoc5)cc43)cn2)CC1 [Compound 1] | G2/M block, intra-S arrest, or cell death (sub-G0) | G2/M block, intra-S arrest, or cell death (sub-G0) | 
2 | O=C1NC(=O)c2ccc(I)cc2/C1=C/NCc1ccc(-c2ccoc2)c(O)c1 [Compound 2] | G2/M block, intra-S arrest, or cell death (sub-G0) | G2/M block, intra-S arrest, or cell death (sub-G0) | 
3 | CCCOc1cnc(CN/C=C2\C(=O)NC(=O)c3ccc(C(C)(C)C)cc32)cc1O [Compound 3] | G2/M block, intra-S arrest, or cell death (sub-G0) | G2/M block, intra-S arrest, or cell death (sub-G0) | 
4 | CCCOc1cnc(CN/C=C2\C(=O)NC(=O)c3ccc(I)cc32)cc1O [Compound 4] | G2/M block, intra-S arrest, or cell death (sub-G0) | G2/M block, intra-S arrest, or cell death (sub-G0) | 
5 | COc1ncccc1-c1ccnc(Nc2ccc(N3CCN(C)CC3)cc2)n1 [Compound 5] | G2/M block, intra-S arrest, or cell death (sub-G0) | G2/M block, intra-S arrest, or cell death (sub-G0) | 
6 | COc1cnccc1-c1nc(Nc2cccc(S(N)(=O)=O)c2)ncc1C [Compound 6] | G2/M block, intra-S arrest, or cell death (sub-G0) | G2/M block, intra-S arrest, or cell death (sub-G0) | 
7 | COc1ccc(F)c(F)c1C(=O)c1cnc(NC2CCN(S(C)(=O)=O)CC2)nc1N [Compound 7] | G2/M block, intra-S arrest, or cell death (sub-G0) | G2/M block, intra-S arrest, or cell death (sub-G0) | 
8 | CN1CCN(c2ccc(Nc3ncc4cnn(C5CCCCC5)c4n3)cc2)CC1 [Compound 8] |  |  | cell cycle effect ([1]; listed as compound 8): G2/M block, intra-S arrest, or cell death (sub-G0); cell cycle effect ([2]; listed as compound 8): G2/M block, intra-S arrest, or cell death (sub-G0)
9 | CN1CCN(Cc2ccc(Nc3ncc4cnn(C5CCCCC5)c4n3)cc2)CC1 [Compound 9] |  |  | cell cycle effect ([1]; listed as compound 9): G2/M block, intra-S arrest, or cell death (sub-G0); cell cycle effect ([2]; listed as compound 9): G2/M block, intra-S arrest, or cell death (sub-G0)
10 | OCCN1CCN(c2ccc(Nc3ncc4cnn(C5CCCCC5)c4n3)cc2)CC1 [Compound 10] | G2/M block, intra-S arrest, or cell death (sub-G0) | G2/M block, intra-S arrest, or cell death (sub-G0) | 
11 | CN1CCN(C(=O)c2ccc(Nc3ncc4cnn(C5CCCCC5)c4n3)cc2)CC1 [Compound 11] |  |  | cell cycle effect ([1]; listed as compound 11): G2/M block, intra-S arrest, or cell death (sub-G0); cell cycle effect ([2]; listed as compound 11): G2/M block, intra-S arrest, or cell death (sub-G0)
12 | CN1CCC(NCc2ccc(Nc3ncc4cnn(C5CCCCC5)c4n3)cc2)CC1 [Compound 12] | G2/M block, intra-S arrest, or cell death (sub-G0) | G2/M block, intra-S arrest, or cell death (sub-G0) | 
13 | OCCN1CCN(Cc2ccc(Nc3ncc4cnn(C5CCCCC5)c4n3)cc2)CC1 [Compound 13] | G2/M block, intra-S arrest, or cell death (sub-G0) | G2/M block, intra-S arrest, or cell death (sub-G0) | 
14 | c1cc(Nc2ncc3cnn(C4CCCCC4)c3n2)ccc1CNCCN1CCOCC1 [Compound 14] | G2/M block, intra-S arrest, or cell death (sub-G0) | G2/M block, intra-S arrest, or cell death (sub-G0) | 
15 | O=c1c(-c2ccc(O)cc2)coc2cc(O)cc(O)c12 [Genistein] | G2/M block, intra-S arrest, or cell death (sub-G0) | G2/M block, intra-S arrest, or cell death (sub-G0) | 
16 | CN1CC[C@H](c2c(O)cc(O)c3c(=O)cc(-c4ccccc4Cl)oc23)[C@H](O)C1 [flavopiridol] | G2/M block, intra-S arrest, or cell death (sub-G0) | G2/M block, intra-S arrest, or cell death (sub-G0) | 
